For test [1], the target named is DRD1-NNES-eLOV-TEVcs-Flag-Gal4-V5 (UniProt P21728). Put plainly: SPARK transcriptional reporter (PPI-dependent TEVp cleavage of LOV-caged TEVcs releases Gal4; UAS-Citrine imaging); HEK293T transiently transfected; agonist added (isoetharine for β2AR, vasopressin for AVPR2, dopamine for DRD1) together with 10 µM furimazine or blue light (5-15 min; DRD1 …; continuous in Fig. 3F-G); Citrine imaged ~8 hr later, Citrine/HA intensity ratio of HA-positive cells.

Sequences of proteins named here, by UniProt entry; tags and fusion partners are left off.
UniProt P21728: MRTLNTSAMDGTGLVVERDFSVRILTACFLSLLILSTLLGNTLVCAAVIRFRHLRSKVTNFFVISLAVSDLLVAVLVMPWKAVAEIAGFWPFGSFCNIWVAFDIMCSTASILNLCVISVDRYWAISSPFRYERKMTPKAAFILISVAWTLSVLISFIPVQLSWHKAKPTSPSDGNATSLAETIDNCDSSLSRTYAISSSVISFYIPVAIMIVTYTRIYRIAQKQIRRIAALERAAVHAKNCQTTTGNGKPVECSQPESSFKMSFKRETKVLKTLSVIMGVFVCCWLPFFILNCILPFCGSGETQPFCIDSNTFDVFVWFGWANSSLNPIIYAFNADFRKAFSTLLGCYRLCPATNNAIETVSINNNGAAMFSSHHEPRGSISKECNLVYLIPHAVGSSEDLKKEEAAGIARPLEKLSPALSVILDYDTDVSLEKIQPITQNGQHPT
UniProt P32121: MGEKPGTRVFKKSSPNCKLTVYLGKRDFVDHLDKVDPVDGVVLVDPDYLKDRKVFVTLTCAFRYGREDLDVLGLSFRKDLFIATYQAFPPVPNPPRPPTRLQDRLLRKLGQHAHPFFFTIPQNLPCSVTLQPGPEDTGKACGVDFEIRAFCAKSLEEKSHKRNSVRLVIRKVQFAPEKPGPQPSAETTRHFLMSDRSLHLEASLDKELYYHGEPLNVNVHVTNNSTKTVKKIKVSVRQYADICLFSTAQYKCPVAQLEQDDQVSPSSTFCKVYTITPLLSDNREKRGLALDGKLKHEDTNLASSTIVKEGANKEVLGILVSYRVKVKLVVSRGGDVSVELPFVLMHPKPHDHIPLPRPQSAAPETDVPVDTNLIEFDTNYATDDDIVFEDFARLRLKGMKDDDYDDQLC

Test [2] has the same target. Briefly: SPARK transcriptional reporter (PPI-dependent TEVp cleavage of LOV-caged TEVcs releases Gal4; UAS-FLuc luminescence on a plate reader); HEK293T transiently transfected (Lipofectamine), re-plated in 96-well plates; 10 µM isoetharine with 10 µM furimazine or blue light for 5-20 min; in the drug screen 5 µM compound (isoetharine, dopamine spike-ins, 92 drugs) with 10 µM furimazine for 1 hr; FLuc read ~8-9 hr later.

Here are results for 1 substance from article PMC6447360.

No constants are given. Whether binding was seen depends on the method and setting. Some binding calls cover weakened binding; strength is not graded here.

Take “NanoLuc-15aa linker-βarrestin2-HA-GS linker-TEVp (from UniProt P32121 1-409)”: the binding result in test [1] and in test [2] was “binds” throughout.
